One molecule from publication PMC10122208 can be followed below.

Amino acid sequences for entries named in this document (tags omitted).
UniProt Q9ULZ3: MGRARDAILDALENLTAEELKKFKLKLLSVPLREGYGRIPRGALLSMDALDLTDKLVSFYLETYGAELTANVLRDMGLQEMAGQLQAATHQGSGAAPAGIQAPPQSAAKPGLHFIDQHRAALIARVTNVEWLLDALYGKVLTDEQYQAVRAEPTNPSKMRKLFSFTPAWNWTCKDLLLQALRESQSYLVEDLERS

No constants are given. Whether binding was seen depends on the method and setting. Binding seen in cells or lysates may run through a third protein. Some entries that bind do so weakly or less than the wild type.

The assay deals with apoptosis-associated speck-like protein containing CARD (ASC) (human (endogenous in HBECs)) (UniProt Q9ULZ3). The assay can be described thus: co-IP; lysates (1 uM DTT + 10% Triton X100, protease inhibitor) of HBECs from patients with asthma, RV-A16 infection (RIG-I blot: in the presence of HDM); 100 ug pooled protein pre-cleared with Protein A beads, 10 ug anti-ASC antibodies overnight at 4 C, Protein A beads 2 h at room temperature; Western blot for RIG-I or MDA5.

B1: retinoic acid-inducible gene I (RIG-I) (protein, UniProt O95786 1-925)
chain: MTTEQRRSLQAFQDYIRKTLDPTYILSYMAPWFREEEVQYIQAEKNNKGPMEAATLFLKFLLELQEEGWFRGFLDALDHAGYSGLYEAIESWDFKKIEKLEEYRLLLKRLQPEFKTRIIPTDIISDLSECLINQECEEILQICSTKGMMAGAEKLVECLLRSDKENWPKTLKLALEKERNKFSELWIVEKGIKDVETEDLEDKMETSDIQIFYQEDPECQNLSENSCPPSEVSDTNLYSPFKPRNYQLELALPAMKGKNTIICAPTGCGKTFVSLLICEHHLKKFPQGQKGKVVFFANQIPVYEQQKSVFSKYFERHGYRVTGISGATAENVPVEQIVENNDIIILTPQILVNNLKKGTIPSLSIFTLMIFDECHNTSKQHPYNMIMFNYLDQKLGGSSGPLPQVIGLTASVGVGDAKNTDEALDYICKLCASLDASVIATVKHNLEELEQVVYKPQKFFRKVESRISDKFKYIIAQLMRDTESLAKRICKDLENLSQIQNREFGTQKYEQWIVTVQKACMVFQMPDKDEESRICKALFLYTSHLRKYNDALIISEHARMKDALDYLKDFFSNVRAAGFDEIEQDLTQRFEEKLQELESVSRDPSNENPKLEDLCFILQEEYHLNPETITILFVKTRALVDALKNWIEGNPKLSFLKPGILTGRGKTNQNTGMTLPAQKCILDAFKASGDHNILIATSVADEGIDIAQCNLVILYEYVGNVIKMIQTRGRGRARGSKCFLLTSNAGVIEKEQINMYKEKMMNDSILRLQTWDEAVFREKILHIQTHEKFIRDSQEKPKPVPDKENKKLLCRKCKALACYTADVRVIEECHYTVLGDAFKECFVSRPHPKPKQFSSFEKRAKIFCARQNCSHDWGIHVKYKTFEIPVIKIESFVVEDIATGVQTLYSKWKDFHFEKIPFDPAEMSK
Regarding B1, the binding result was “binds”.
